Measurements reported in PubChem BioAssay AID1259306 (Sanger Institute, 2017).

Test: 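Kinase-wide siRNA screen for partners of targeted drugs in colorectal cancer cells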 (primary screen)
Cell system: human SNU-C5 colorectal cancer cells
Knock-down reagent: siRNA pool against human genes
Treatment: DMSO vehicle alone, or one anchor drug: BYL719 at 1 µM, cetuximab at 5 µg/ml or trametinib at 10 nM, given 24 h into the assay
Detection: 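Viability versus non-targeting pool averaged across replicates, given as fraction and robust z-score, and synergy scores for BYL719, cetuximab or trametinib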
Direction: robust z-score, knock-down alone and viability, knock-down alone: higher = more viable cells; synergy score with BYL719: higher = stronger synthetic lethality with BYL719; synergy score with cetuximab: higher = stronger synthetic lethality with cetuximab; synergy score with trametinib: higher = stronger synthetic lethality with trametinib
Active means: 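Called essential when the robust z-score for knock-down alone is below -3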
Calls: active = essential (knock-down alone); inactive = no change alone
The whole screen tested 794 reagents; shown is an unselected part. 11 of them (1.4%) count as active. 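Calls reflect knock-down alone; synergy scores play no part, so knock-downs synergising with a drug can be called no change.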 Viability is capped at 1. Not stated in the record: the amount of reagent, the time to read-out.

Gene | robust z-score, knock-down alone | viability, knock-down alone | synergy score with BYL719 | synergy score with cetuximab | synergy score with trametinib | activity call
TSSK4 (testis specific serine kinase 4) | 0.0696 | 0.873 | -0.00728 | -0.0229 | -0.0826 | inactive
SMAD2 (SMAD family member 2) | -2.65 | 0.498 | 0.0104 | 0.0908 | -0.121 | inactive
EPHA5 (EPH receptor A5) | 0.989 | 1 | 0 | 0 | -0.0685 | inactive
STKLD1 (serine/threonine kinase like domain containing 1) | 0.0986 | 0.877 | 0.0989 | -0.123 | -0.148 | inactive
TTBK2 (tau tubulin kinase 2) | -0.554 | 0.788 | 0.245 | 0.168 | -0.117 | inactive
MYO3B (myosin IIIB) | 0.989 | 1 | 0.185 | 0 | -0.162 | inactive
CERT1 (ceramide transporter 1) | 0.143 | 0.883 | 0.0249 | 0.0793 | -0.0195 | inactive
ERN2 (endoplasmic reticulum to nucleus signaling 2) | 0.989 | 1 | 0.37 | 0.0987 | -0.101 | inactive
MAGI2 | 0.989 | 1 | 0.00514 | 0 | 0.00884 | inactive
NIM1K (NIM1 serine/threonine protein kinase) | 0.103 | 0.878 | -0.0405 | 0.0767 | -0.0653 | inactive
NEK11 (NIMA related kinase 11) | -1.12 | 0.709 | 0.00989 | 0.0977 | -0.0311 | inactive
IRAK4 (interleukin 1 receptor associated kinase 4) | 0.364 | 0.914 | 0.0868 | -0.0861 | -0.167 | inactive
ACVR1 (activin A receptor type 1) | 0.989 | 1 | 0.0999 | 0 | -0.128 | inactive
DLG4 (discs large MAGUK scaffold protein 4) | 0.558 | 0.941 | 0.225 | 0.0461 | 0.13 | inactive
GAK (cyclin G associated kinase) | -0.0947 | 0.851 | 0.0982 | 0.0762 | -0.167 | inactive
PIP5K1C (phosphatidylinositol-4-phosphate 5-kinase type 1 gamma) | -0.521 | 0.792 | 0.236 | -0.0308 | -0.00573 | inactive
MKNK1 (MAPK interacting serine/threonine kinase 1) | 0.989 | 1 | 0.0215 | 0 | -0.122 | inactive
ATRX (ATRX chromatin remodeler) | 0.625 | 0.95 | -0.0501 | 0.182 | -0.167 | inactive
MAP3K8 (mitogen-activated protein kinase kinase kinase 8) | -0.835 | 0.749 | 0.0842 | -0.0881 | -0.00531 | inactive
CDC42BPG (CDC42 binding protein kinase gamma) | 0.897 | 0.987 | 0.0188 | 0.0538 | -0.00284 | inactive
TPD52L3 (TPD52 like 3) | -0.33 | 0.818 | 0.0466 | -0.0126 | -0.217 | inactive
MAP4K5 (mitogen-activated protein kinase kinase kinase kinase 5) | -3.47 | 0.386 | 0.00789 | -0.109 | -0.251 | active
MERTK (MER proto-oncogene, tyrosine kinase) | 0.392 | 0.918 | 0.0501 | -0.0485 | 0.0213 | inactive
NUCKS1 | 0.989 | 1 | 0 | 0 | -0.0676 | inactive
MAP3K14 (mitogen-activated protein kinase kinase kinase 14) | 0.723 | 0.963 | 0.00663 | 0.164 | 0.0602 | inactive
GNE | 0.255 | 0.899 | 0.0794 | -0.0792 | 0.115 | inactive
CDK16 (cyclin dependent kinase 16) | -0.0836 | 0.852 | 0.0496 | 0.0204 | 0.0114 | inactive
LIMK2 (LIM domain kinase 2) | 0.795 | 0.973 | 0.0786 | -0.0268 | -0.256 | inactive
MAPK1 (mitogen-activated protein kinase 1) | 0.194 | 0.89 | 0.242 | -0.0382 | -0.0386 | inactive
DYRK4 (dual specificity tyrosine phosphorylation regulated kinase 4) | 0.897 | 0.987 | 0.12 | 0.061 | 0.0934 | inactive
DCLK1 (doublecortin like kinase 1) | 0.628 | 0.95 | 0.0732 | -0.0429 | 0.0296 | inactive
RAD21 (RAD21 cohesin complex component) | 0.0589 | 0.872 | 0.0139 | 0.0188 | 0.0605 | inactive
STK31 (serine/threonine kinase 31) | 0.588 | 0.945 | 0.0761 | -0.0244 | -0.0277 | inactive
RTN4 (reticulon 4) | -0.57 | 0.785 | -0.051 | 0.165 | -0.00378 | inactive

Single entries from the list:
For “synergy score with BYL719”, EPHA5 (EPH receptor A5) reads 0
IRAK4 (interleukin 1 receptor associated kinase 4), robust z-score, knock-down alone = 0.364
Result for ACVR1 (activin A receptor type 1) under “synergy score with trametinib”: -0.128
Entry for ATRX (ATRX chromatin remodeler) in “synergy score with trametinib”: -0.167
